{"source": "patent US5780242A", "about": "“Bioassay for the screening of ION channel active molecules” (priority 1995, dated 1998)", "tested_on": "AChE preparation (sodium channel neuroreceptor)", "test": "Circular dichroism bioassay at 222 nm: temperature-dependent helix-coil transition of the AChE/neuroreceptor preparation in presence of drug", "format": "binding, bovine", "settings": "hydrochloride monohydrate", "description": "A baseline of the solution is obtained using 222 nm without removing the cell after a run is begun to allow for thermal stabilization. Prior to adding the drug to the enzyme, a blank run consisting only of the drug at the same concentration used in the enzyme study is made. To obtain control data, temperature changes of 5 degrees centigrade in the neuroreceptor solution alone are made using a Forma water bath. Then the drug is added to a sample of the purified neuroreceptor solution, and the stabilizing effect of the drug on the temperature-related conformational changes is noted. All temperature runs are allowed to equilibrate for one hour before data is collected. Macromolecular samples for control and drug interaction have the same alpha helix content prior to drug addition. […]\nAll studies are made in 1 mm, 5 mm and 2 mm cells using a Jouan Dichrograph II at 1×10^-5 O.D./mm sensitivity. […] Protein concentration is determined empirically and then measured by the Lowry method after the run. […]\nThe routine consists of beginning a CD spectral scan followed by running each activity blank at that temperature using 3 minute reading intervals. […] The data recorded consists of duplicates of CD spectra with cell temperatures varying 5 degrees centigrade at 222 nm. […]", "note": "Entries after “also recorded” stand apart in the source; their conditions may differ. Where a name gives a salt, the structure may show the parent alone.", "data": [{"smiles": "CCN(CC)CC(=O)Nc1c(C)cccc1C", "note": "[Lidocaine, Lidocaine hydrochloride monohydrate]", "values": [{"measurement": "stabilization of helix in preparations not freshly prepared", "setting": "enzyme preparations more than one week old / not freshly prepared", "value": "not observed; also recorded: will not be protected"}, {"measurement": "stabilization of the alpha helix / prevention of the helical transition between 30° C. and 35° C.", "setting": "fresh preparations, 222 nm, pH 7.0", "value": "appear to stabilize the helix; also recorded: prevent the helical transition; also recorded: prevented this partial uncoiling of the alpha-helix; also recorded: successfully stabilizes the coiled alpha helix"}]}]}
